No constants are given. Whether binding was seen depends on the method and setting. In cells and extracts the contact can be indirect. Some entries that bind do so weakly or less than the wild type.
Experiments:
[1] = target: IFITM3, FLAG-tagged copy and Myc-tagged copy (human) (UniProt Q01628); test: co-IP; anti-FLAG (M2) antibody added to 100 μg whole cell lysate of HEK293T co-transfected with IFITM3-FLAG and IFITM3-Myc, alone or with 97ZA Nef-HA; Dynabeads Protein G; immunoblot with anti-FLAG and anti-Myc
[2] = target: LAI Nef-HA (HIV-1 (molecular clone LAI)) (UniProt P03406); test: co-IP; anti-HA antibody added to 100 μg whole cell lysate of co-transfected HEK293T (20 mM HEPES, 150 mM NaCl, 1 mM EDTA, 1% Triton X-100), 1 hour at 4°C, Dynabeads Protein G, three washes with lysis buffer; immunoblot with anti-HA and anti-IFITM3
[3] = target: SF2 Nef-HA (HIV-1 (molecular clone SF2)) (UniProt P03407); test: as above

Sequences of proteins named here, by UniProt entry; tags and fusion partners are left off.
UniProt P03407: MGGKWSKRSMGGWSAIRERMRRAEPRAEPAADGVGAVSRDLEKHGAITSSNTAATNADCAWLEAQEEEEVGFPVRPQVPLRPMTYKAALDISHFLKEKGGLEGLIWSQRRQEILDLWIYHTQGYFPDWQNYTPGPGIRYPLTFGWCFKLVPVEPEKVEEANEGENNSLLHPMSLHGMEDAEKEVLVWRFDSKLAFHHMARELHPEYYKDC

Substance | binding [1] | binding [2] | binding [3]
IFITM3, FLAG-tagged copy and Myc-tagged copy (from UniProt Q01628 1-133) | binds | – | –
human IFITM3 (untagged; interferon-induced transmembrane protein 3) (from UniProt Q01628 1-133) | – | binds | binds

From publication doi:10.1101/2025.05.15.654345
